The target of test [1] is 3xFLAG-tagged R919* human TRPA1 (human) (UniProt O75762). The experiment in a line: co-IP + SEC.
Test [2] deals with MBP-tagged R919* human TRPA1 (human) (UniProt O75762). The experiment in a line: pull-down.
In test [3] the target is MBP-tagged WT human TRPA1 (human) (UniProt O75762). The experiment in a line: pull-down.
For test [4], the target named is FLAG-MBP-WT human TRPA1 (human, UniProt O75762 1-1119). The experiment in a line: native gel or EMSA.

Drawing on article doi:10.1101/2022.01.05.475133 (bioRxiv, 2022), this text covers binding for six molecules.

No constants are given. Whether binding was seen depends on the method and setting. For some assays here: In cells and extracts the contact can be indirect. Some binding calls cover weakened binding; strength is not graded here.

Turning to “GFP-tagged R919* human TRPA1 (from UniProt O75762 1-918) (domain or fragment)”, the binding result in test [1] was “binds”.
In the case of “3xFLAG-tagged R919* human TRPA1 (from UniProt O75762 1-918) (domain or fragment)”, the binding result in test [2] and in test [3] was “binds” throughout.
As for “Strep-MBP-WT human TRPA1 (from UniProt O75762 1-1119)”, in test [4], the binding result is listed as “binds”.
With “3xFLAG-tagged WT human TRPA1 (from UniProt O75762 1-1119)”, the binding result in test [2] and in test [3] was “binds” in each case.

B1: Strep-MBP-R919* human TRPA1 (domain or fragment, UniProt O75762 1-918, looked up)
chain: MKRSLRKMWRPGEKKEPQGVVYEDVPDDTEDFKESLKVVFEGSAYGLQNFNKQKKLKRCDDMDTFFLHYAAAEGQIELMEKITRDSSLEVLHEMDDYGNTPLHCAVEKNQIESVKFLLSRGANPNLRNFNMMAPLHIAVQGMNNEVMKVLLEHRTIDVNLEGENGNTAVIIACTTNNSEALQILLKKGAKPCKSNKWGCFPIHQAAFSGSKECMEIILRFGEEHGYSRQLHINFMNNGKATPLHLAVQNGDLEMIKMCLDNGAQIDPVEKGRCTAIHFAATQGATEIVKLMISSYSGSVDIVNTTDGCHETMLHRASLFDHHELADYLISVGADINKIDSEGRSPLILATASASWNIVNLLLSKGAQVDIKDNFGRNFLHLTVQQPYGLKNLRPEFMQMQQIKELVMDEDNDGCTPLHYACRQGGPGSVNNLLGFNVSIHSKSKDKKSPLHFAASYGRINTCQRLLQDISDTRLLNEGDLHGMTPLHLAAKNGHDKVVQLLLKKGALFLSDHNGWTALHHASMGGYTQTMKVILDTNLKCTDRLDEDGNTALHFAAREGHAKAVALLLSHNADIVLNKQQASFLHLALHNKRKEVVLTIIRSKRWDECLKIFSHNSPGNKCPITEMIEYLPECMKVLLDFCMLHSTEDKSCRDYYIEYNFKYLQCPLEFTKKTPTQDVIYEPLTALNAMVQNNRIELLNHPVCKEYLLMKWLAYGFRAHMMNLGSYCLGLIPMTILVVNIKPGMAFNSTGIINETSDHSEILDTTNSYLIKTCMILVFLSSIFGYCKEAGQIFQQKRNYFMDISNVLEWIIYTTGIIFVLPLFVEIPAHLQWQCGAIAVYFYWMNFLLYLQRFENCGIFIVMLEVILKTLLRSTVVFIFLLLAFGLSFYILLNLQDPFSSPLLSIIQTFSMMLGDINY
For the molecule B1, the binding entry in test [4] is reported as “binds”.

B2: GFP-tagged WT human TRPA1 (natural protein, UniProt O75762 1-1119, looked up)
chain: MKRSLRKMWRPGEKKEPQGVVYEDVPDDTEDFKESLKVVFEGSAYGLQNFNKQKKLKRCDDMDTFFLHYAAAEGQIELMEKITRDSSLEVLHEMDDYGNTPLHCAVEKNQIESVKFLLSRGANPNLRNFNMMAPLHIAVQGMNNEVMKVLLEHRTIDVNLEGENGNTAVIIACTTNNSEALQILLKKGAKPCKSNKWGCFPIHQAAFSGSKECMEIILRFGEEHGYSRQLHINFMNNGKATPLHLAVQNGDLEMIKMCLDNGAQIDPVEKGRCTAIHFAATQGATEIVKLMISSYSGSVDIVNTTDGCHETMLHRASLFDHHELADYLISVGADINKIDSEGRSPLILATASASWNIVNLLLSKGAQVDIKDNFGRNFLHLTVQQPYGLKNLRPEFMQMQQIKELVMDEDNDGCTPLHYACRQGGPGSVNNLLGFNVSIHSKSKDKKSPLHFAASYGRINTCQRLLQDISDTRLLNEGDLHGMTPLHLAAKNGHDKVVQLLLKKGALFLSDHNGWTALHHASMGGYTQTMKVILDTNLKCTDRLDEDGNTALHFAAREGHAKAVALLLSHNADIVLNKQQASFLHLALHNKRKEVVLTIIRSKRWDECLKIFSHNSPGNKCPITEMIEYLPECMKVLLDFCMLHSTEDKSCRDYYIEYNFKYLQCPLEFTKKTPTQDVIYEPLTALNAMVQNNRIELLNHPVCKEYLLMKWLAYGFRAHMMNLGSYCLGLIPMTILVVNIKPGMAFNSTGIINETSDHSEILDTTNSYLIKTCMILVFLSSIFGYCKEAGQIFQQKRNYFMDISNVLEWIIYTTGIIFVLPLFVEIPAHLQWQCGAIAVYFYWMNFLLYLQRFENCGIFIVMLEVILKTLLRSTVVFIFLLLAFGLSFYILLNLQDPFSSPLLSIIQTFSMMLGDINYRESFLEPYLRNELAHPVLSFAQLVSFTIFVPIVLMNLLIGLAVGDIAEVQKHASLKRIAMQVELHTSLEKKLPLWFLRKVDQKSTIVYPNKPRSGGMLFHIFCFLFCTGEIRQEIPNADKSLEMEILKQKYRLKDLTFLLEKQHELIKLIIQKMEIISETEDDDSHCSFQDRFKKEQMEQRNSRWNTVLRAVKAKTHHLEP
B2: the binding entry in test [1] is on record as “binds”.
